≈ marks a conversion by molar mass, not a printed value.
What was measured:
Candida albicans = test: microbe, parasite or virus in culture; details: 20 h
HepG2 = test: Cytotoxic activity against human HepG2 cells by MTT assay; assay type: functional, cell-based
Summary of the method: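 Adherent cancer cell lines, viability read by MTT assay. Doxorubicin served as reference drug for A549, HepG2 and HuCCA-1, and etoposide also for HepG2. IC50 determined.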

A549 = test: cells; details: Homo sapiens

Row | MIC (Candida albicans) [µg/mL] | IC50 (A549) [µg/mL] | Structure (SMILES) | IC50 (HepG2) [µg/mL]
1 | 0.78 (≈ 0.844 µM) | – | C[C@@H]1[C@H](O)[C@@H](C)/C=C/C=C/C=C/C=C/C=C/C=C/C=C/[C@H](O[C@@H]2O[C@H](C)[C@@H](O)[C@H](N)[C@@H]2O)C[C@@H]2O[C@](O)(C[C@@H](O)C[C@@H](O)[C@H](O)CC[C@@H](O)C[C@@H](O)CC(=O)O[C@H]1C)C[C@H](O)[C@H]2C(=O)O [AMPHOTERICIN B] | –
2 | – | 0.27 (≈ 0.497 µM) | COc1cccc2c1C(=O)c1c(O)c3c(c(O)c1C2=O)C[C@@](O)(C(=O)CO)C[C@@H]3O[C@H]1C[C@H](N)[C@H](O)[C@H](C)O1 [DOXORUBICIN] | 0.22 (≈ 0.405 µM)

From ChEMBL document CHEMBL4020704, “Metabolite diversification by cultivation of the endophytic fungus Dothideomycete sp. in halogen containing media: Cultivation of terrestrial fungus in seawater” (Bioorg Med Chem, 2017)
